# Source: PubChem BioAssay AID1259421 (Broad Institute, 2018)
# The list shows a part of the results, in another mix than the full data. Active and inactive are the calls of the source. No stated cut-off is given here; in the data, active means activity change below about -70%; inconclusive means no clear call, values can overlap the other calls; inactive means above that.
# Assay: T. gondii ME49Luc in HeLa cells, luciferase assay, 72 h, no IFN-y (AID 1259421)
# Conditions: stronger effect = lower value, concentration not given here
row,Compound,"activity change, negative = inhibition"
1,O=C1NC(=O)c2c1c(-c1ccccc1)cc1[nH]c3ccc(O)cc3c21,active: -83.3%
